Assay: MALDI-TOF MSI of lipids from porcine brain tissue before and after 18 hrs incubation under vacuum (Example 8)
Settings: 18 hrs in MALDI source, 2×10^−7 mbar, 35° C.
Procedure: An ITO glass slide with two pieces of porcine brain tissue sections was prepared as described above (cf. Example 4a). An optical image was taken thereof for the registration process in the software FlexImaging. The workflow for the present example is explained below with reference to FIG. 14.
The Photo-caged MALDI Matrix Compound of Ex. 1.1 (DMNB-2,5-DHAP) and the conventional (uncaged) MALDI matrix compound 2,5-DHAP were both dissolved at concentrations of 2.5 mg/mL (acetonitrile/water 85:15, v/v+0.1% trifluoroacetic acid) and sprayed on top of the two different pieces of porcine brain tissue sections (preparation see above), using the spray parameters as described in Example 4a above. Homogenous and small crystals of DMNB-2,5-DHAP were subsequently observed on the ITO glass slide as well as on the porcine brain tissue section. 1st and 2nd MALDI imaging measurements and optical images were then made (optical images before and after 1st MALDI imaging measurement and directly before 2nd MALDI imaging measurement) of the Photo-caged MALDI Matrix Compound and of the conventional MALDI matrix compound on the ITO glass slides (glass surface sections and porcine tissue sections), respectively. After the 1st MALDI imaging measurement, the slides were left inside the MALDI source for incubation (18 hrs, for incubation conditions see below) before the 2nd MALDI imaging measurements were made.
MALDI imaging measurements were performed for the Photo-caged MALDI Matrix Compound of Ex. 1.1 and the conventional MALDI matrix compound 2,5-DHAP on a rapifleX™ MALDI TOF mass spectrometer (Bruker Daltonics) in reflector-negative ion mode in a mass range from m/z 100 to 1700 (ion suppression up to 80 m/z) using the FlexImaging 5.0 software (Bruker Daltonics). Inside the MALDI ion source, a vacuum of 2×10^−7 mbar and a temperature of 35° C. (incubation conditions) were observed. The acquisition method was calibrated using a polyaniline solution and matrix. Settings: acquisition mode: 250 laser shots at 10 kHz repetition rate per position; spatial resolution: 50 μm; digitizer: 1.25 Gs/s; Ion Source: 1 to 20 kV; PIT: 2.47 kV; lens: 11.4 kV; Pulsed Ion Extraction: 110 ns. The laser energy was determined for each matrix. Data visualization was performed using FlexImaging 5.0 software (Bruker Daltonics). Total ion count (TIC) normalization was performed for all data.

SMILES	ion images of lipids from porcine brain tissue after incubation under vacuum
Nc1cccc2c(N)cccc12 [1,5-DAN, 1,5-diaminonaphthalene, reference compound]	decreased significantly
CC(=O)c1cc(O)ccc1O [2,5-DHAP, 2,5-dihydroxyacetophenone, reference compound]	no or nearly no ion images
Sc1nc2ccccc2s1 [2-MBT, 2-mercaptobenzothiazole, reference compound]	decreased significantly
COc1cc(COc2ccc(O)c(C(C)=O)c2)c([N+](=O)[O-])cc1OC [Ex. 1.1, 1-(5-((4,5-Dimethoxy-2-nitrobenzyl)oxy)-2-hydroxyphenyl)ethan-1-one]	still visible
COc1cc(CNc2cccc3c(N)cccc23)c([N+](=O)[O-])cc1OC [Ex. 1.2, N^1-(4,5-dimethoxy-2-nitrobenzyl)naphthalene-1,5-diamine]	still visible
COc1cc(COc2cccc(O)c2C(C)=O)c([N+](=O)[O-])cc1OC [Ex. 1.4, 1-(2-((4,5-Dimethoxy-2-nitrobenzyl)oxy)-6-hydroxyphenyl)ethan-1-one]	still visible
COc1cc(CSc2nc3ccccc3s2)c([N+](=O)[O-])cc1OC [Ex. 1.5, 2-((4,5-Dimethoxy-2-nitrobenzyl)thio)benzo[d]thiazole]	still visible

Source: patent US20240159706A1, “MALDI-MS METHOD, PHOTO-SENSITIVE MALDI MATRIX COMPOSITE AND PHOTO-CAGED MALDI MATRIX COMPOUND FOR USE IN SAID METHOD AND RESPECTIVE USES” (SIRIUS FINE CHEMICALS SICHEM GMBH, priority 2021, published 2024)
